According to PubChem BioAssay AID504847 (National Center for Advancing Translational Sciences (NCATS), 2011):
Out of some 400,000 compounds screened, about 3,700 (0.93%) were called active. The shares of active, inactive and inconclusive entries below differ from those in the screen. Calls come from the whole dose curve; as a rule, active = well fitted inhibition curve with a large enough effect; inconclusive = small, poorly fitted or top-dose-only effect, or another doubt; inactive = no such curve, though single readings can be large or run the other way. Potencies beside an inconclusive call are fits to weak or partial responses and may not hold up. The source holds several records for some structures; these can differ, active in one and inactive in another.

Protein sequences, listed by entry. Tags and fused reporters are not part of them. Lines headed by an entry give the natural chain unless they say otherwise; changes in a name come on top.
UniProt P11473: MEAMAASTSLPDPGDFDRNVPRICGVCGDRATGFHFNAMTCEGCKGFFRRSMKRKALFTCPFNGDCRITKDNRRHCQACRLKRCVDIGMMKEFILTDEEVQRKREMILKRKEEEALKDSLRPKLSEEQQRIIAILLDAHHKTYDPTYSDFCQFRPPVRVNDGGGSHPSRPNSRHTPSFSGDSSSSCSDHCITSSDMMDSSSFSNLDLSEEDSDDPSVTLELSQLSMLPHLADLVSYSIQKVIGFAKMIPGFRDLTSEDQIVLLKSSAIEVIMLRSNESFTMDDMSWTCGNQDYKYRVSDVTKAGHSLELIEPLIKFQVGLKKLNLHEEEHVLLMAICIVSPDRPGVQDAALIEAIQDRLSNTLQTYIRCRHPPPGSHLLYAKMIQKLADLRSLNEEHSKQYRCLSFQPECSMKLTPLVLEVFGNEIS

Each compound was assayed against Vitamin D3 receptor (Homo sapiens) (UniProt P11473) (assay: Inhibitors of the vitamin D receptor (VDR): qHTS). Conditions: VDR-SRC2-3 peptide fluorescence polarization, 2 h; max response, negative = inhibition: active compounds read low.
Procedure, shortened: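 Inhibition of the VDR/SRC2-3 peptide interaction is quantified by fluorescence polarization. Compounds (23 nl, pintool) incubate with the reagents for 2 hours at ambient room temperature.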
% is set by controls: 0 for no effect and ±100 for the full control effect; potency is the fitted concentration of half-maximal effect.

| SMILES | Potency | max response, negative = inhibition |
| --- | --- | --- |
| COc1cc(/C=C2/C(=O)NN(c3ccc(Cl)cc3)C2=O)ccc1OC(=O)c1ccco1 | inconclusive: 35.5 µM [inhibitor, partial curve, poor fit] |  |
| COc1ccc(C(=O)N2CCN(c3ccccn3)CC2)cc1 |  | inactive: -2.89% |
| COC(=O)[C@@H](Cc1c[nH]c2ccccc12)NC(=O)c1cc(=O)[nH]c2ccccc12 | inconclusive: 89.1 µM [inhibitor, partial curve, poor fit] |  |
| COc1cc([N+](=O)[O-])cc(/C=N\NC(=O)C2COc3ccccc3O2)c1O (stereo not given) |  | inactive: 1.65% |
| CC(C)(C)c1ccc(/C=C(\C#N)C(=O)NC2CC2)cc1 | inconclusive: 79.4 µM [inhibitor, single point] |  |
| CCN(CC)CCN(C(=O)c1cc2ccccc2cc1OC)c1nc2ccc(F)cc2s1 |  | inactive: -20% |
| Cc1ccc(N(CCC#N)C(=O)COC(=O)C2CCN(S(=O)(=O)c3ccc4c(c3)OCCO4)CC2)cc1 |  | inactive: -19.8% |
| C/C(=N\NC(=O)c1ccc(Cl)c(Cl)c1)c1ccc(Br)s1 |  | inactive: -19.9% |
| Cc1ccccc1Nc1c(-c2cccnc2)nc2ccc(Cl)cn12 |  | inactive: -19.1% |
| CCOC(=O)/C(=C/c1ccc(OC(=O)c2ccncc2)cc1)C(C)=O | inconclusive: 50.1 µM [inhibitor, partial curve, poor fit] |  |
| CC(=O)N1CCc2c(sc(NC(=O)C3COc4ccccc4O3)c2C(N)=O)C1 (stereo not given) | inconclusive: 89.1 µM [inhibitor, single point] |  |
| O=C(CCCc1nc2ccccc2s1)NNC(=O)CCN1CCN(Cc2ccccc2)CC1 | inconclusive: 89.1 µM [inhibitor, single point] |  |
| Oc1cccc(C=Nc2cccc3ccccc23)c1O | active: 28.2 µM |  |
| NC(=O)CC(NSc1ccccc1[N+](=O)[O-])C(=O)O (stereo not given) | inconclusive: 50.1 µM [inhibitor, partial curve] |  |
| O=C(OCC(=O)c1c[nH]c2ccccc12)c1cc(Br)ccc1O | inconclusive: 89.1 µM [inhibitor, single point] |  |
| COc1cc(C(=O)Nc2cccc(S(=O)(=O)N3CCCC3)c2)cc(OC)c1C |  | inactive: 6.97% |
| CCOC(=O)CNc1nc(C(C)(C)C)nc2c1nnn2Cc1ccccc1 | inconclusive: 63.1 µM [inhibitor, partial curve, poor fit] |  |
| CC(C)CNS(=O)(=O)c1ccc(CCC(=O)N2CCC(C(N)=O)CC2)cc1 |  | inactive: 28.5% |
| CCN1CCN(c2ccc(S(=O)(=O)N3CCCCC3)cc2NC(=O)/C=C/c2ccc([N+](=O)[O-])cc2)CC1 |  | inactive: -8.45% |
| COc1cccc(C(C)NC(=O)Cc2cccs2)c1 (stereo not given) | inconclusive: 79.4 µM [inhibitor, partial curve, poor fit] |  |
| O=C1N(c2ccc(Cl)cc2)C(c2ccccc2)N2CCCN12 (stereo not given) | inconclusive: 50.1 µM [inhibitor, partial curve, poor fit] |  |

| SMILES | Potency | max response, negative = inhibition |
| --- | --- | --- |
| CN1CCN(Cc2cc(COCc3ccccc3)c3cccnc3c2O)CC1 | inconclusive: 79.4 µM [inhibitor, single point] |  |
| CCc1ccc2[nH]c(=O)c(CN(Cc3ccccc3OC)C(=O)Nc3ccccc3OC)cc2c1 |  | inactive: 18.1% |
| CN(C)c1ccc(-c2cncnc2NCc2cccs2)cc1 | inconclusive: 44.7 µM [inhibitor, partial curve] |  |
| O=C(Nc1cc(Cl)ccc1Cl)c1cc([N+](=O)[O-])cc(Br)c1O | active: 79.4 µM |  |
| N#C/C(=N\Nc1ccc(S(=O)(=O)N2CCOCC2)cc1)C(N)=S |  | inactive: -19.7% |
| O=C(NC(=S)NC1CCCc2ccccc21)c1ccc(F)cc1 (stereo not given) | inconclusive: 100 µM [inhibitor, single point] |  |
| CC(=O)NC1=NN(C(C)=O)C2(S1)C(=O)N(C(C)=O)c1ccc(C)cc12 (stereo not given) | inconclusive: 70.8 µM [inhibitor, single point] |  |
| CSc1ccc(CCNC(=O)CCc2c(C)nc3ncnn3c2C)cc1 |  | inactive: -17.9% |
| Cc1ccc(S(=O)(=O)N(C)CC(=O)OCC(=O)NC(=O)Nc2ccc3c(c2)OCCO3)cc1 | inconclusive: 56.2 µM [inhibitor, partial curve, poor fit] |  |
| CCNC(=S)NNC(=O)c1cccn(Cc2ccc(Cl)cc2)c1=O | inconclusive: 89.1 µM [inhibitor, single point] |  |
| Cc1nc2cnccc2n1C |  | inactive: 1.82% |
| O=C(CN1C(=O)NC2(CCCCC2)C1=O)Oc1ccc2c(C(F)(F)F)cc(=O)oc2c1 | inconclusive: 79.4 µM [inhibitor, partial curve, poor fit] |  |
| COc1cccc(NC(=O)CN(CCc2ccccc2)S(=O)(=O)c2ccc(Cl)cc2)c1 |  | inactive: -3.97% |
| O=C(OCC(=O)N1CCCc2ccccc21)c1cccc(S(=O)(=O)N2CCc3ccccc32)c1 |  | inactive: 1.21% |
| c1ccc(CNc2ncncc2-c2cccnc2)cc1 | inconclusive: 89.1 µM [inhibitor, single point] |  |
| CC(=O)Nc1sc2c(c1C(c1cccc(Cl)c1)N1CCN(CCO)CC1)CCCC2 (stereo not given) | inconclusive: 79.4 µM [inhibitor, partial curve, poor fit] |  |
| O=C(Nc1cnn(Cc2ccc(Cl)cc2)c1)c1cccs1 | inconclusive: 31.6 µM [inhibitor, single point] |  |
| COC(=O)COc1cccc(/C=N/NC(=O)CCSc2ccccc2)c1 | inconclusive: 89.1 µM [inhibitor, single point] |  |
| CC(C)OC(=O)c1c(NS(=O)(=O)c2ccccc2)sc2c1CCCC2 | inconclusive: 6.31 µM [inhibitor, single point] |  |
| Cc1ccc(C2NC(c3ccc4c(c3)OCO4)=CC(c3cc(Br)ccc3O)N2)cc1 (stereo not given) | inconclusive: 63.1 µM [inhibitor, partial curve, poor fit] |  |
| Cc1cc(C)c(S(=O)(=O)/N=C2\C=C(Nc3ccc(C(=O)O)cc3)C(=O)c3ccccc32)c(C)c1 | inconclusive: 89.1 µM [inhibitor, single point] |  |
| N#Cc1c(Nc2ccc(F)cc2)sc(C(=O)c2ccccc2)c1N | inconclusive: 89.1 µM [inhibitor, single point] |  |

| SMILES | Potency | max response, negative = inhibition |
| --- | --- | --- |
| [N-]=C=C1C(=S)NC(=O)[C@H]([n+]2ccccc2)[C@H]1c1ccc(Cl)cc1 | active: 44.7 µM |  |
| CCCN(CC(=O)Nc1ccc(F)c(F)c1F)C(=O)Cc1ccc(S(=O)(=O)N2CCOCC2)s1 | inconclusive: 100 µM [inhibitor, single point] |  |
| COc1ccc(C=NNC(=O)c2ccccc2NS(=O)(=O)c2cccs2)cc1O |  | inactive: -1.12% |
| Cn1c(NCCN(CCO)CCCc2ccc([N+](=O)[O-])cc2)cc(=O)n(C)c1=O | active: 50.1 µM |  |
| CC(C)Nc1nc(NC(C)C)nc(C(=O)OCCO)n1 |  | inactive: 15.9% |
| Oc1ccc(N=C/C=C/c2cccc(Br)c2)cc1-c1nc2ccccc2s1 | inconclusive: 28.2 µM [inhibitor, partial curve, poor fit] |  |
| CCC(Sc1n[nH]c(=O)[nH]c1=O)C(=O)OCc1ccccc1 (stereo not given) |  | inactive: 10.5% |
| COc1ccc(OC)c(C(=O)CSc2nc3ncccc3[nH]2)c1 | inconclusive: 7.08 µM [inhibitor, full curve, poor fit] |  |
| c1ccc(Cc2nn3c(Cn4nnc5ccccc54)nnc3s2)cc1 | active: 89.1 µM |  |
| CC(C)NC(=O)c1cc(-c2ccco2)nn1-c1ccc(Cl)cc1 | inconclusive: 89.1 µM [inhibitor, single point] |  |
| NC1=NN=C(c2ccc3c(c2)OCCO3)CS1 | inconclusive: 89.1 µM [inhibitor, single point] |  |
| C[n+]1c2n(c3ccccc31)N=C(c1ccc(Br)cc1)CS2 | inconclusive: 79.4 µM [inhibitor, partial curve, poor fit] |  |
| O=C1CSC(=S)N1/N=C/c1ccc(O)c(O)c1O | inconclusive: 25.1 µM [inhibitor, single point] |  |
| CC1(C)CC(=O)C(C(C2=C(O)CC(C)(C)CC2=O)c2ccc([N+](=O)[O-])cc2)C(=O)C1 (stereo not given) | inconclusive: 89.1 µM [inhibitor, single point] |  |
| C[C@@H](C(=O)Nc1ccc(SC(F)F)cc1)N1C(=O)C2CCCCC2C1=O (stereo not given in full) | inconclusive: 79.4 µM [inhibitor, single point] |  |
| O=C(c1cc(-c2ccco2)nc2ccccc12)N1CCCC(C(F)(F)F)C1 (stereo not given) | inconclusive: 89.1 µM [inhibitor, single point] |  |
| CCCC[C@H]1CCCO[C@@](C(=O)NCc2ccccc2)(C(F)(F)F)C1 | inconclusive: 100 µM [inhibitor, partial curve, poor fit] |  |
| Cc1noc(C)c1-c1nccc(NC2CC2)n1 | active: 50.1 µM |  |
| O=C(NCCC(=O)N1CCN(S(=O)(=O)c2ccccc2)CC1)c1ccc(Br)cc1 | inconclusive: 89.1 µM [inhibitor, partial curve, poor fit] |  |
| CCOC(=O)COc1ccc(/C=C/[N+](=O)[O-])c(OCC(=O)OCC)c1 | active: 12.6 µM |  |
| Cc1ccc(-c2nc(=Nc3c(C)cc(C)cc3C)sn2-c2ccccc2)cc1 | inconclusive: 44.7 µM [inhibitor, partial curve, poor fit] |  |

5 compounds from above, sorted by SMILES length, falling:

| SMILES | Potency | max response, negative = inhibition |
| --- | --- | --- |
| CCCN(CC(=O)Nc1ccc(F)c(F)c1F)C(=O)Cc1ccc(S(=O)(=O)N2CCOCC2)s1 | inconclusive: 100 µM [inhibitor, single point] |  |
| C[C@@H](C(=O)Nc1ccc(SC(F)F)cc1)N1C(=O)C2CCCCC2C1=O (stereo not given in full) | inconclusive: 79.4 µM [inhibitor, single point] |  |
| Oc1ccc(N=C/C=C/c2cccc(Br)c2)cc1-c1nc2ccccc2s1 | inconclusive: 28.2 µM [inhibitor, partial curve, poor fit] |  |
| COc1ccc(OC)c(C(=O)CSc2nc3ncccc3[nH]2)c1 | inconclusive: 7.08 µM [inhibitor, full curve, poor fit] |  |
| CC(C)Nc1nc(NC(C)C)nc(C(=O)OCCO)n1 |  | inactive: 15.9% |
